PubChem BioAssay AID1259405 – NCATS – 2018
Screen: 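Knock-downs that lift recombinant protein yield in hamster ovary cells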 (primary screen). System: Chinese hamster CHO-K1 ovary cells with stable secreted eGFP expression. Knock-down reagent: single siRNA against mouse genes, 0.8 pmol siRNA per well (2 µl of 400 nM stock). Timing: 3 days. Measurement: 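Per-well intracellular GFP measured by laser scanning cytometry, plus viability from ATP luminescence, each relative to plate median of non-targeting control wells, in %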. Direction: GFP, % of control: higher = more GFP per well, higher productivity; viability (ATP), % of control: higher = more viable cells (more ATP). Rule for the call: 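Called active when intracellular GFP, relative to negative control, is at or above 120%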.
Shown is one part, drawn at random, of about 50,000 reagents tested. In the full data, about 4,000 (8%) got an active call. 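Mouse siRNA library applied to hamster cells; one well for each siRNA.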 A number with no mark means an inactive call. Reagents against one gene are numbered here. Reagent sequences are not shown.

Gene,reagent no.,"GFP, % of control","viability (ATP), % of control"
Slc35d2,1,67.7,79.3
Slc35d2,2,98.1,72.3
Slc35d2,3,58.4,67.3
Atp1b2,1,93,79.7
Atp1b2,2,39.5,49.9
Atp1b2,3,98.2,78.4
Tnpo3,1,70.9,57.7
Tnpo3,2,57.1,56.1
Tnpo3,3,101,101
Slc38a3,1,106,72.1
Slc38a3,2,27.3,34.8
Ano7,1,58,43.2
Ano7,2,78.3,91.1
Ano7,3,63.8,55.5
Arhgap20,1,113,121
Arhgap20,2,77.5,88.2
Arhgap20,3,69.1,64.6
Lypd4,1,112,99.1
Lypd4,2,118,104
Lypd4,3,67.9,97.1
Unc5cl,1,82.7,49
Unc5cl,2,70.9,63.3
Unc5cl,3,87.3,94.5
Tslp,1,65.5,50.6
Tslp,2,70.2,82.3
Tslp,3,139 (active),128
Enpp6,1,72.5,96.1
Enpp6,2,122 (active),107
Gsta2,1,61.6,88.9
Gsta2,2,65.4,90
Gsta2,3,51.9,61.7
Yap1,1,101,64.4
Yap1,2,47.1,65.8
Yap1,3,96.2,106
